At least one structure is not confirmed: it was looked up by name or label, or the drawing left a doubt.
Test: Stability of NAD+ and NADH on heating in acid
Assay type: physicochemical
Conditions: HCl 0.1M, 60° C. for 30 minutes, then neutralization with TRIS buffer pH 7.1

SMILES: NC(=O)C1=CN([C@@H]2O[C@H](COP(=O)(O)OP(=O)(O)OC[C@H]3O[C@@H](n4cnc5c(N)ncnc54)[C@H](O)[C@@H]3O)[C@@H](O)[C@H]2O)C=CC1 [NADH]
- recovery after heating in acid condition: < 1 % recovery

SMILES: NC(=O)c1ccc[n+]([C@@H]2O[C@H](COP(=O)([O-])OP(=O)(O)OC[C@H]3O[C@@H](n4cnc5c(N)ncnc54)[C@H](O)[C@@H]3O)[C@@H](O)[C@H]2O)c1 [NAD^+, nicotinamide adenine dinucleotide]
- recovery after heating in acid condition: > 99 % recovery

— patent US20190350955A1, “METHODS AND PHARMACEUTICAL COMPOSITIONS FOR THE TREATMENT OF CARDIOMYOPATHIES” (INSERM (Institut National de la Sante et de la Recherche …, priority 2016, published 2019)
